These results are taken from patent US20230312730A1 (ATYR PHARMA, published 2023).

In assay [1] the target is T1, human NRP2 variant 2 (NM_003872) over-expressed on Expi293-hNRP2 clonal cells (human) (UniProt O60462).
T1 sequence: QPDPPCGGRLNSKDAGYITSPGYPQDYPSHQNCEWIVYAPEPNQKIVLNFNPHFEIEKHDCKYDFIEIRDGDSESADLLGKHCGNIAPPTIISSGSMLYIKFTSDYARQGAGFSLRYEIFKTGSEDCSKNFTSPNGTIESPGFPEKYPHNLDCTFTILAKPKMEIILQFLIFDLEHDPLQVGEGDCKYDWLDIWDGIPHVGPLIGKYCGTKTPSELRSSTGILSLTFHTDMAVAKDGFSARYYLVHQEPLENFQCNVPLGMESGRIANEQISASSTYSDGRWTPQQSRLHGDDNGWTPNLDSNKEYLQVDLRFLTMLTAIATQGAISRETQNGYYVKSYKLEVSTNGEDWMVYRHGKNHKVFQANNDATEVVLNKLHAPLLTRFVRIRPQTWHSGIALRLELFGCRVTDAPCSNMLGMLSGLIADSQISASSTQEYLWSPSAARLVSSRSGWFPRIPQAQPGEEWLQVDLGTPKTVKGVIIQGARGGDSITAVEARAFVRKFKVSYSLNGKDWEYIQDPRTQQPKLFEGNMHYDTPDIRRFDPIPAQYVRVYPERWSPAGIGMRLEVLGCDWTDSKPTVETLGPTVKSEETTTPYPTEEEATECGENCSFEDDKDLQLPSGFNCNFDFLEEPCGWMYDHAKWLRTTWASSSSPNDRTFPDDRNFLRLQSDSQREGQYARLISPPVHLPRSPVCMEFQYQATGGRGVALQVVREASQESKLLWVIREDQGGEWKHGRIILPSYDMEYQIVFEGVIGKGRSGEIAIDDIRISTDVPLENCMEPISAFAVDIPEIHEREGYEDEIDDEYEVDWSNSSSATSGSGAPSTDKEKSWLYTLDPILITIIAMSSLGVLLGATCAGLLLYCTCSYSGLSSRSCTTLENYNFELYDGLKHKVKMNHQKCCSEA
Nature of the assay: flow cytometry on Expi293-hNRP2 cells, Sema3F-p95m at 6 nM without antibody, AF555 anti-Myc detection. (In general: Flow cytometry measures light scatter and fluorescence of single cells or particles in a stream.)

Assay [2] addresses T1, human NRP2 variant 2 (NM_003872) over-expressed on Expi293-hNRP2 clonal cells (human). Briefly: flow cytometry on Expi293-hNRP2 clonal cells, AF555 anti-Myc detection.
Assay [3] has the same target. Briefly: flow cytometry on Expi293-hNRP2 clonal cells, rabbit anti-VEGF-C and labelled anti-rabbit secondary.
For assay [4] the target is unchanged. Nature of the assay: flow cytometry on Expi293-hNRP2 clonal cells, VEGF-C at 100 nM, rabbit anti-VEGF-C and AF647 anti-rabbit secondary.

No constants are given. Whether binding was seen depends on the method and setting. Some binding calls cover weakened binding; strength is not graded here. For some of these results: Where a sequence is shown, tags or fusion partners need not be part of it.

B1: Sema3F-p95m (Myc-tagged Sema3F-p95 R583A R586A-1359) (ligand, UniProt Q13275 19-779, looked up)
chain: SFPTQDHLPATPRVRLSFKELKATGTAHFFNFLLNTTDYRILLKDEDHDRMYVGSKDYVLSLDLHDINREPLIIHWAASPQRIEECVLSGKDVNGECGNFVRLIQPWNRTHLYVCGTGAYNPMCTYVNRGRRAQATPWTQTQAVRGRGSRATDGALRPMPTAPRQDYIFYLEPERLESGKGKCPYDPKLDTASALINEELYAGVYIDFMGTDAAIFRTLGKQTAMRTDQYNSRWLNDPSFIHAELIPDSAERNDDKLYFFFRERSAEAPQSPAVYARIGRICLNDDGGHCCLVNKWSTFLKARLVCSVPGEDGIETHFDELQDVFVQQTQDVRNPVIYAVFTSSGSVFRGSAVCVYSMADIRMVFNGPFAHKEGPNYQWMPFSGKMPYPRPGTCPGGTFTPSMKSTKDYPDEVINFMRSHPLMYQAVYPLQRRPLVVRTGAPYRLTTIAVDQVDAADGRYEVLFLGTDRGTVQKVIVLPKDDQELEELMLEEVEVFKDPAPVKTMTISSKRQQLYVASAVGVTHLSLHRCQAYGAACADCCLARDPYCAWDGQACSRYTASSKRASRAQDVRHGNPIRQCRGFNSNANKNAVESVQYGVAGSAAFLECQPRSPQATVKWLFQRDPGDRRREIRAEDRFLRTEQGLLLRALQLSDRGLYSCTATENNFKHVVTRVQLHVLGRDAVHAALFPPLSMSAPPPPGAGPPTPPYQELAQLLAQPEVGLIHQYCQGYWRHVPPSPREAPGAPRSPEPQDQKKPRNRR
notes: not shown: Myc tag
B1: the binding entry in assay [1] and in assay [2] was “binds” each time.

B2: recombinant human VEGF-C (R&D Systems #9199-VC) (ligand, UniProt P49767 103-227, looked up)
chain: TEETIKFAAAHYNTEILKSIDNEWRKTQCMPREVCIDVGKEFGVATNTFFKPPCVSVYRCGGCCNSEGLQCMNTSTSYLSKTLFEITVPLSQGPKPVTISFANHTSCRCMSKLDVYRQVHSIIRR
notes: Bought reagent
As to B2, the binding entry in assay [3] and in assay [4] was “binds” in each case.
